Source: publication PMC3871807
Results are given in words; binding and its absence hold for the method and conditions named. In cells and extracts the contact can be indirect. Some entries that bind do so weakly or less than the wild type. For part of these data: Sequences can lack the tags named with a protein.

The chains behind the UniProt entries cited, without tags or fusion partners. Residues count along the entry.
UniProt Q7XVN7: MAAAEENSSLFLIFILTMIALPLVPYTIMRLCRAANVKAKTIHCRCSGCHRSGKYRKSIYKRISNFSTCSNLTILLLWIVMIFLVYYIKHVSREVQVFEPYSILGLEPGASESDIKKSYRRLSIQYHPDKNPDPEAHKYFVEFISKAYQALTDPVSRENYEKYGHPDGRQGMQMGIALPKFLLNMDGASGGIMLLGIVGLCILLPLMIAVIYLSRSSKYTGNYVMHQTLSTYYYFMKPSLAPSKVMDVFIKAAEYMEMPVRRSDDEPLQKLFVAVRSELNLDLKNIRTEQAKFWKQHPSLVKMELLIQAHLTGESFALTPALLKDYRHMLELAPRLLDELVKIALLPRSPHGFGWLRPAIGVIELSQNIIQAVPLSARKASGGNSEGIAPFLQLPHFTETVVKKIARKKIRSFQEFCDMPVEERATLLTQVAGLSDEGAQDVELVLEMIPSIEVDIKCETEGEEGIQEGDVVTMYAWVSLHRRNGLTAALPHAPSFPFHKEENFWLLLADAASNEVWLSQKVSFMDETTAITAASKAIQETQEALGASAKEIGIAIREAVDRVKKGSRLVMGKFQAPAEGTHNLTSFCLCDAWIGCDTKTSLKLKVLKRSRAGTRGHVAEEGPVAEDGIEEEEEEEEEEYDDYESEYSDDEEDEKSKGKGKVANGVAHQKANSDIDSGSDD
UniProt Q10MW6, residues 26-582: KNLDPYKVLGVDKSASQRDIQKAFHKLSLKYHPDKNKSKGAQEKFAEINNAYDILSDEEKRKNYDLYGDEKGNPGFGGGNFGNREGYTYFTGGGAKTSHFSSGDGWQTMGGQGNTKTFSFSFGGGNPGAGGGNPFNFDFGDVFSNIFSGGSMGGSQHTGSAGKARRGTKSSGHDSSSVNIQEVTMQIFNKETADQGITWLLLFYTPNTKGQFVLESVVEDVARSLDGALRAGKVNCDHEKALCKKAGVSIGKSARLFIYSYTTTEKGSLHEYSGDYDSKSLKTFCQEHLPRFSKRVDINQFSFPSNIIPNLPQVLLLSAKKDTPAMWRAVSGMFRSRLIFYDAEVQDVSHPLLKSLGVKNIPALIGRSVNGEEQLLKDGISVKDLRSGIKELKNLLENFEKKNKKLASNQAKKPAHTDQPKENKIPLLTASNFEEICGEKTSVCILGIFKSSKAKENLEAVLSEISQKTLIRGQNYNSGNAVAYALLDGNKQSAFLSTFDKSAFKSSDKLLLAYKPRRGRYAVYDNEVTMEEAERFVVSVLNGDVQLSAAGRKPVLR
UniProt Q6L590, residues 33-669: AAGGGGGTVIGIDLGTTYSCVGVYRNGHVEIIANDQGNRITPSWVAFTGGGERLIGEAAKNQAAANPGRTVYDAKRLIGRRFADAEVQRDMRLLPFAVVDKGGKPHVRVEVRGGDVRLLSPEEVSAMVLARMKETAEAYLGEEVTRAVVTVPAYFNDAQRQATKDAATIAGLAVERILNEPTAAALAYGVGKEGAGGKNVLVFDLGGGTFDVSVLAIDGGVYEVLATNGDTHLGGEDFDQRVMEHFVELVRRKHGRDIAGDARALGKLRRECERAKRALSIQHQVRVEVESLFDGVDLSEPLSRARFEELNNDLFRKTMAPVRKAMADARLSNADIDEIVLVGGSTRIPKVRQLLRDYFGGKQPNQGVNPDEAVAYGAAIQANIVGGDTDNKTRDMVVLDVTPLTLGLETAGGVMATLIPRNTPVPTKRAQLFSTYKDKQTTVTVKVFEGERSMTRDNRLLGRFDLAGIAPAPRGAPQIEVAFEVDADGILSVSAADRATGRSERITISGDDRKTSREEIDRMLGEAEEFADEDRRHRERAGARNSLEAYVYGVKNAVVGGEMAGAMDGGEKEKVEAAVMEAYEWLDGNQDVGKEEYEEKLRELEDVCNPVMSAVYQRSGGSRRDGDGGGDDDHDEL
UniProt Q6Z7B0, residues 26-665: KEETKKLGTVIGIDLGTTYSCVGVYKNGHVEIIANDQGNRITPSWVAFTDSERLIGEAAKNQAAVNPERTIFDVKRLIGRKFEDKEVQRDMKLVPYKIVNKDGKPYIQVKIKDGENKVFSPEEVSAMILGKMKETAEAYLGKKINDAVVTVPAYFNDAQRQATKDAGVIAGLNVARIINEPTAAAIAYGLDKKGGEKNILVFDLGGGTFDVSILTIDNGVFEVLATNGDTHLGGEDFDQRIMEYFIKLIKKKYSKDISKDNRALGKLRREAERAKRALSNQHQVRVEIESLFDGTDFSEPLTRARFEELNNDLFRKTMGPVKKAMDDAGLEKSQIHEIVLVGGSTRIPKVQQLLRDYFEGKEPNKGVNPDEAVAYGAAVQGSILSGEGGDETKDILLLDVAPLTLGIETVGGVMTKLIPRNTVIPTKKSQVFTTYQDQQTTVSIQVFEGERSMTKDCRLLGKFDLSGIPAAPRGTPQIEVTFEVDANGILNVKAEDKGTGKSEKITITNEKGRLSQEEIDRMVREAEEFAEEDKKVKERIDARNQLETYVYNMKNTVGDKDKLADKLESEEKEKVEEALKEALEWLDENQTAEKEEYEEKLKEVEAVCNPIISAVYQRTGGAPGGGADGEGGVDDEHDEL
UniProt Q6Z058, residues 28-676: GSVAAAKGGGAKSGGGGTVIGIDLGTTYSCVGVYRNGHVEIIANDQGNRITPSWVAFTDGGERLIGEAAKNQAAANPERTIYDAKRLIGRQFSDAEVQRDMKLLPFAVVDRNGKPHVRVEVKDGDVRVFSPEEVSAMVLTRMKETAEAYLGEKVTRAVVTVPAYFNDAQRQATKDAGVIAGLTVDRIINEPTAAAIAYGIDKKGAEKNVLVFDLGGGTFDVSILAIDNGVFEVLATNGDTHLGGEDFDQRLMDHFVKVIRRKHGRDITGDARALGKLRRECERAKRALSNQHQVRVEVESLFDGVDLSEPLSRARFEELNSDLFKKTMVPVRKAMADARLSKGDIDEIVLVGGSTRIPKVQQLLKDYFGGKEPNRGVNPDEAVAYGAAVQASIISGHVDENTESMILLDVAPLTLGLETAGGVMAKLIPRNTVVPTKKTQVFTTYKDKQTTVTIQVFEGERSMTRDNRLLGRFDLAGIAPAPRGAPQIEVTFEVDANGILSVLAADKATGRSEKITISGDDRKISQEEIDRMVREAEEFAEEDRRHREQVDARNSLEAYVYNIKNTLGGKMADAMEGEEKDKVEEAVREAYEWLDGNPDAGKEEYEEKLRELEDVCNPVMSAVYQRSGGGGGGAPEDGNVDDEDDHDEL

How the values were obtained:
Assay in all cases: co-IP; J-protein-3xFLAG and OsBiP-2HA-6His co-transfected into rice Oc cell protoplasts, overnight at 28 °C; extract in 50 mM TRIS-HCl pH 7.5, 150 mM NaCl, 0.5% Triton X-100; anti-FLAG M2 magnetic beads 2 h at 4 °C; washed with NET buffer (0.1% NP-40); blots with anti-FLAG-HRP and anti-HA-HRP; recovery of BiP-HA over input, relative to BiP1-HA
[1] = target: OsERdj2-FLAG (rice (Oryza sativa)) (UniProt Q7XVN7)
[2] = target: OsERdj3A-FLAG (rice (Oryza sativa)) (UniProt Q10MW6)
[3] = target: T1, OsERdj3B-FLAG (rice (Oryza sativa)) (UniProt B9FHF3)
T1 sequence: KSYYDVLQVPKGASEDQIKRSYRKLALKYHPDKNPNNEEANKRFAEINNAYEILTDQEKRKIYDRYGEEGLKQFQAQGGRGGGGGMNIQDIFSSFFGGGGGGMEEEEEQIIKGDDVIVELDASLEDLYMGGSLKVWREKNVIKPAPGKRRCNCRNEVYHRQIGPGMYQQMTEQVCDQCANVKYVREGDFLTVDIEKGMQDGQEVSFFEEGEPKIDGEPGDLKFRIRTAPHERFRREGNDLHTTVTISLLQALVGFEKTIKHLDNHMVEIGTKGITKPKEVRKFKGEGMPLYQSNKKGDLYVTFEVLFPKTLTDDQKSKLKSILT

[4] = target: T2, OsERdj7-FLAG (rice (Oryza sativa)) (UniProt Q2QUP1)
T2 sequence: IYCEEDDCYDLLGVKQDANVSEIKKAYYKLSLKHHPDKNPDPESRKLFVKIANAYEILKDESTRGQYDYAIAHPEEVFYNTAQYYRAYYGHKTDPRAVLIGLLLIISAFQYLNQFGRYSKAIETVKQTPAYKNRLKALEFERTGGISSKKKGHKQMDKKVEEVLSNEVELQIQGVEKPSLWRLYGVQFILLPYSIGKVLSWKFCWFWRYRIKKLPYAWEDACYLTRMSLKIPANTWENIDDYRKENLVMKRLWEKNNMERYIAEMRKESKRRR

[5] = target: T3, OsP58A-FLAG (rice (Oryza sativa))
T3 sequence: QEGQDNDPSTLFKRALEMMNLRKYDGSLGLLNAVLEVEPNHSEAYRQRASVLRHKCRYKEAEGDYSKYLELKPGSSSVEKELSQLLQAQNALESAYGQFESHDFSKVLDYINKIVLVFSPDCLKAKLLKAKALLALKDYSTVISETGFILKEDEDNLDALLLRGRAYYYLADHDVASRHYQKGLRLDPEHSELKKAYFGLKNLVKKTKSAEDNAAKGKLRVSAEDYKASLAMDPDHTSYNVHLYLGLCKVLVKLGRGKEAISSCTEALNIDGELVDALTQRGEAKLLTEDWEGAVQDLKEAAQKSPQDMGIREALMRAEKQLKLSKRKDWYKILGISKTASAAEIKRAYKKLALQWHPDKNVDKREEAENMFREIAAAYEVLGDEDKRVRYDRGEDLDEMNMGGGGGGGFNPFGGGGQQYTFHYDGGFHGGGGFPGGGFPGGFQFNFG

[6] = target: T4, OsP58B-FLAG (rice (Oryza sativa)) (UniProt Q5JNB5)
T4 sequence: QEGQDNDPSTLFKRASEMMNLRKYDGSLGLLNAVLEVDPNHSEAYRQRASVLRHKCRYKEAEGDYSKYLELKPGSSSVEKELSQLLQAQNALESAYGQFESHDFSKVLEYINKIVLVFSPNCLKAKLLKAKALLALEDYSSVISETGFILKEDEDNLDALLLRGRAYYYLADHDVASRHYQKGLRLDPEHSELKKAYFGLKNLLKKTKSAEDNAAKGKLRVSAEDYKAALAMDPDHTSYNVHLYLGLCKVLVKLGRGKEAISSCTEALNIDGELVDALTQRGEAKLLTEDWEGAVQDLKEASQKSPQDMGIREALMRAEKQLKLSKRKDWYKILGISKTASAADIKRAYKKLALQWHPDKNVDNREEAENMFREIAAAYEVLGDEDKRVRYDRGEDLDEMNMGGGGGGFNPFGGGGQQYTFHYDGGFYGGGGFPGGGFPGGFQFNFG

| binding [1] | binding [2] | binding [3] | binding [4] | binding [5] | binding [6] | Substance |
| --- | --- | --- | --- | --- | --- | --- |
| binds | binds | binds | binds | binds | binds | OsBiP3-HA (from UniProt Q6L590 33-669) |
| binds | binds |  | binds |  | binds | OsBiP1-HA (from UniProt Q6Z7B0 26-665) |
| binds |  | binds | binds | binds | binds | OsBiP5-HA (from UniProt Q6Z058 28-676) |
